PubChem BioAssay AID1224830 | NIAID – 2016

Purpose: 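Genes whose knock-down alters the TNF-alpha reporter response to LPS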 (primary screen)
Cells: human THP-1 monocytic leukaemia cells, TNF dual-luciferase reporter clone, PMA-differentiated to macrophage-like cells
Reagent: siRNA pool against human genes, 50 nM
Duration: LPS for 4 h, given about 3 days after siRNA transfection
Treatment: bacterial LPS (TLR4 ligand), 10 ng/ml
Measurement: 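Ratio of firefly to renilla light, scaled to the plate median and expressed as a robust z-score per replicate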
Scale: TNF reporter robust z-score: higher = stronger TNF reporter response to LPS
Call rule: 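Each well counts as active if its z-score is over 2.8 or under -1.5; controls are left without a call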
Here is one part, drawn at random, of about 18,000 reagents. About 2,900 of them (16%) count as active. 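Calls are made per well; low scores hint the gene aids the LPS response, high scores that it dampens it.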 Unmarked entries are inactive. Repeated entries: four replicate wells of each siRNA pool.

{"target":"IRX5 (iroquois homeobox 5)","TNF reporter robust z-score":0.02}
{"target":"IRX5 (iroquois homeobox 5)","TNF reporter robust z-score":-0.33}
{"target":"IRX5 (iroquois homeobox 5)","TNF reporter robust z-score":-0.81}
{"target":"IRX5 (iroquois homeobox 5)","TNF reporter robust z-score":-0.76}
{"target":"BMAL1 (basic helix-loop-helix ARNT like 1)","TNF reporter robust z-score":-1.3}
{"target":"BMAL1 (basic helix-loop-helix ARNT like 1)","TNF reporter robust z-score":-1.14}
{"target":"BMAL1 (basic helix-loop-helix ARNT like 1)","TNF reporter robust z-score":0}
{"target":"BMAL1 (basic helix-loop-helix ARNT like 1)","TNF reporter robust z-score":-0.41}
{"target":"PPP2R1B (protein phosphatase 2 scaffold subunit Abeta)","TNF reporter robust z-score":0.68}
{"target":"PPP2R1B (protein phosphatase 2 scaffold subunit Abeta)","TNF reporter robust z-score":2.18}
{"target":"PPP2R1B (protein phosphatase 2 scaffold subunit Abeta)","TNF reporter robust z-score":1.19}
{"target":"PPP2R1B (protein phosphatase 2 scaffold subunit Abeta)","TNF reporter robust z-score":1.27}
{"target":"CLEC3A (C-type lectin domain family 3 member A)","TNF reporter robust z-score":-1.03}
{"target":"CLEC3A (C-type lectin domain family 3 member A)","TNF reporter robust z-score":0.16}
{"target":"CLEC3A (C-type lectin domain family 3 member A)","TNF reporter robust z-score":-0.8}
{"target":"CLEC3A (C-type lectin domain family 3 member A)","TNF reporter robust z-score":-1.06}
{"target":"DCAF17 (DDB1 and CUL4 associated factor 17)","TNF reporter robust z-score":-1}
{"target":"DCAF17 (DDB1 and CUL4 associated factor 17)","TNF reporter robust z-score":-1.13}
{"target":"DCAF17 (DDB1 and CUL4 associated factor 17)","TNF reporter robust z-score":-0.69}
{"target":"DCAF17 (DDB1 and CUL4 associated factor 17)","TNF reporter robust z-score":-0.63}
{"target":"TUBA1B (tubulin alpha 1b)","TNF reporter robust z-score":-1.08}
{"target":"TUBA1B (tubulin alpha 1b)","TNF reporter robust z-score":1.86}
{"target":"TUBA1B (tubulin alpha 1b)","TNF reporter robust z-score":0.87}
{"target":"TUBA1B (tubulin alpha 1b)","TNF reporter robust z-score":-0.82}
{"target":"SMC5 (structural maintenance of chromosomes 5)","TNF reporter robust z-score":0.73}
{"target":"SMC5 (structural maintenance of chromosomes 5)","TNF reporter robust z-score":1.35}
{"target":"SMC5 (structural maintenance of chromosomes 5)","TNF reporter robust z-score":1.74}
{"target":"SMC5 (structural maintenance of chromosomes 5)","TNF reporter robust z-score":1.12}
{"target":"OR2T5 (olfactory receptor family 2 subfamily T member 5)","TNF reporter robust z-score":-0.81}
{"target":"OR2T5 (olfactory receptor family 2 subfamily T member 5)","TNF reporter robust z-score":-1}
{"target":"OR2T5 (olfactory receptor family 2 subfamily T member 5)","TNF reporter robust z-score":-1.18}
{"target":"OR2T5 (olfactory receptor family 2 subfamily T member 5)","TNF reporter robust z-score":0.27}

5 consecutive entries already listed, quoted:
{"target":"DCAF17 (DDB1 and CUL4 associated factor 17)","TNF reporter robust z-score":-0.63}
{"target":"TUBA1B (tubulin alpha 1b)","TNF reporter robust z-score":-1.08}
{"target":"TUBA1B (tubulin alpha 1b)","TNF reporter robust z-score":1.86}
{"target":"TUBA1B (tubulin alpha 1b)","TNF reporter robust z-score":0.87}
{"target":"TUBA1B (tubulin alpha 1b)","TNF reporter robust z-score":-0.82}
